Article PMC5472764

Amino acid sequences for entries named in this document (tags omitted).
UniProt Q14571: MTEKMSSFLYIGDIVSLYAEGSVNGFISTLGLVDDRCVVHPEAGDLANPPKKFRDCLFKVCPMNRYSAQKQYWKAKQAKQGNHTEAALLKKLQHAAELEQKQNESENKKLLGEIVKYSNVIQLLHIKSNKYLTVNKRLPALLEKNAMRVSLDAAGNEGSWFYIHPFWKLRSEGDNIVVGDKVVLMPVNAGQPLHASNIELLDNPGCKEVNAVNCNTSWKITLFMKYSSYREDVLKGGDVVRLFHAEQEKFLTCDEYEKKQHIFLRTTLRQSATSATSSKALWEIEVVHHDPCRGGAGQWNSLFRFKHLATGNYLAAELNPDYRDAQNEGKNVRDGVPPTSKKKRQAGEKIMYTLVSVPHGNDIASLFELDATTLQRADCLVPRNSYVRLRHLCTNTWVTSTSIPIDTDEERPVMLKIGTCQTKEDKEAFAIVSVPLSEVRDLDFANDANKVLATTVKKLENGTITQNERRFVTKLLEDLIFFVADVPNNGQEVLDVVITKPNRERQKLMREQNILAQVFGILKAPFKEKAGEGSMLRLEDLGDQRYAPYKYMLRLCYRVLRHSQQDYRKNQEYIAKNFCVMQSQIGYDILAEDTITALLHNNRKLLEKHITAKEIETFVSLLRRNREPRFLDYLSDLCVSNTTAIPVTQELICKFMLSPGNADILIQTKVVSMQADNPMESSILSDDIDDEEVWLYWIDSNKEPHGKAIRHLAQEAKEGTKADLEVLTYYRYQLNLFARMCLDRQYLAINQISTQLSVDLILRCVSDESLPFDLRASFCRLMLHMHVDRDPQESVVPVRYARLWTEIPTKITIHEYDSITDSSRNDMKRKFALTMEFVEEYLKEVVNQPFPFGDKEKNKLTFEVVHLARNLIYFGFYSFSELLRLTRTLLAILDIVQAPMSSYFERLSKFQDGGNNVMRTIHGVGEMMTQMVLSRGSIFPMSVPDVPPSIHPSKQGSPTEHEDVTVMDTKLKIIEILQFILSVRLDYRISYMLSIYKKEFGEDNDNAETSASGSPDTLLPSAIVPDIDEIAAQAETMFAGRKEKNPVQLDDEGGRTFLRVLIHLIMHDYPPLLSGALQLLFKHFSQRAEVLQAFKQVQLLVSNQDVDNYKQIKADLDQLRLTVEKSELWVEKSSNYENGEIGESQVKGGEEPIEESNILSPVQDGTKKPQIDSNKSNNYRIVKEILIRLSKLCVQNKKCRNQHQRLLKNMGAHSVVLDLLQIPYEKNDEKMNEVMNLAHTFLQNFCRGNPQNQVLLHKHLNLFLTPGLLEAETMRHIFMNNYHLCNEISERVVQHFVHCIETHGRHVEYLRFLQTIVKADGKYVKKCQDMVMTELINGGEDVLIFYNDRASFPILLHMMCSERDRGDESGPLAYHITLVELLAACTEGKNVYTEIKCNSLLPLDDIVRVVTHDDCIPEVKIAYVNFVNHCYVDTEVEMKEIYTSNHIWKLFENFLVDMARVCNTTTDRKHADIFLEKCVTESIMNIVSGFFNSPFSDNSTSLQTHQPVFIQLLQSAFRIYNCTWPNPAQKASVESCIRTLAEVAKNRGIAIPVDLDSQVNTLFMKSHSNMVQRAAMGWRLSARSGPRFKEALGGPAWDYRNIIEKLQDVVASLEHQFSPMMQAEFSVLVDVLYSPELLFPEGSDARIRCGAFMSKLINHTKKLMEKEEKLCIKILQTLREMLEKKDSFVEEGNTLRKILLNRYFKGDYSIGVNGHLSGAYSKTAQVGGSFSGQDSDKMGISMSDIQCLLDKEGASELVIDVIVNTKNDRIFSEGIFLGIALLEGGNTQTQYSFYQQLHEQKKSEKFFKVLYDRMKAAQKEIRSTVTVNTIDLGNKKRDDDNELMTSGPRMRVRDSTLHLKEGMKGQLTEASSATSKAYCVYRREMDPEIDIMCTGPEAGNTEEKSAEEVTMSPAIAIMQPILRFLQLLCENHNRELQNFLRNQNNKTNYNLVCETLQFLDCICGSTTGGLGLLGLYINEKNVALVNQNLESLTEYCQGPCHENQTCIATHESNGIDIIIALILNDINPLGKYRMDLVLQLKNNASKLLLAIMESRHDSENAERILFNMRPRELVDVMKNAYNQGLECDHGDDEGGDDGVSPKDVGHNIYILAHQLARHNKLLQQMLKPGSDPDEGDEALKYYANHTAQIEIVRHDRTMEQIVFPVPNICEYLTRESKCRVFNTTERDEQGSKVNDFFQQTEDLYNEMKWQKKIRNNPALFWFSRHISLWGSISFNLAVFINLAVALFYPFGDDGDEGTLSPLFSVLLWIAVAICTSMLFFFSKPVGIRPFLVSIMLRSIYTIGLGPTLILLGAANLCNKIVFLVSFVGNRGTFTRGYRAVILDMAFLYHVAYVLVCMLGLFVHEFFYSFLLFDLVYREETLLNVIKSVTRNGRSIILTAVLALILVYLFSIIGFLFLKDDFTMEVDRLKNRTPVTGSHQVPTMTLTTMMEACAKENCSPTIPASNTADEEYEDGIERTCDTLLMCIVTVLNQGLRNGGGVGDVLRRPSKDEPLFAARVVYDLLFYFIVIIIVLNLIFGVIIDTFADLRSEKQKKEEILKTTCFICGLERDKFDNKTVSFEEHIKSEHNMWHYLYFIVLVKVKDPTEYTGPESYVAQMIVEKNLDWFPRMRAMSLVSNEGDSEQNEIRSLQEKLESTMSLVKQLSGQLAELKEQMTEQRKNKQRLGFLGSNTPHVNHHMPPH
UniProt Q14573: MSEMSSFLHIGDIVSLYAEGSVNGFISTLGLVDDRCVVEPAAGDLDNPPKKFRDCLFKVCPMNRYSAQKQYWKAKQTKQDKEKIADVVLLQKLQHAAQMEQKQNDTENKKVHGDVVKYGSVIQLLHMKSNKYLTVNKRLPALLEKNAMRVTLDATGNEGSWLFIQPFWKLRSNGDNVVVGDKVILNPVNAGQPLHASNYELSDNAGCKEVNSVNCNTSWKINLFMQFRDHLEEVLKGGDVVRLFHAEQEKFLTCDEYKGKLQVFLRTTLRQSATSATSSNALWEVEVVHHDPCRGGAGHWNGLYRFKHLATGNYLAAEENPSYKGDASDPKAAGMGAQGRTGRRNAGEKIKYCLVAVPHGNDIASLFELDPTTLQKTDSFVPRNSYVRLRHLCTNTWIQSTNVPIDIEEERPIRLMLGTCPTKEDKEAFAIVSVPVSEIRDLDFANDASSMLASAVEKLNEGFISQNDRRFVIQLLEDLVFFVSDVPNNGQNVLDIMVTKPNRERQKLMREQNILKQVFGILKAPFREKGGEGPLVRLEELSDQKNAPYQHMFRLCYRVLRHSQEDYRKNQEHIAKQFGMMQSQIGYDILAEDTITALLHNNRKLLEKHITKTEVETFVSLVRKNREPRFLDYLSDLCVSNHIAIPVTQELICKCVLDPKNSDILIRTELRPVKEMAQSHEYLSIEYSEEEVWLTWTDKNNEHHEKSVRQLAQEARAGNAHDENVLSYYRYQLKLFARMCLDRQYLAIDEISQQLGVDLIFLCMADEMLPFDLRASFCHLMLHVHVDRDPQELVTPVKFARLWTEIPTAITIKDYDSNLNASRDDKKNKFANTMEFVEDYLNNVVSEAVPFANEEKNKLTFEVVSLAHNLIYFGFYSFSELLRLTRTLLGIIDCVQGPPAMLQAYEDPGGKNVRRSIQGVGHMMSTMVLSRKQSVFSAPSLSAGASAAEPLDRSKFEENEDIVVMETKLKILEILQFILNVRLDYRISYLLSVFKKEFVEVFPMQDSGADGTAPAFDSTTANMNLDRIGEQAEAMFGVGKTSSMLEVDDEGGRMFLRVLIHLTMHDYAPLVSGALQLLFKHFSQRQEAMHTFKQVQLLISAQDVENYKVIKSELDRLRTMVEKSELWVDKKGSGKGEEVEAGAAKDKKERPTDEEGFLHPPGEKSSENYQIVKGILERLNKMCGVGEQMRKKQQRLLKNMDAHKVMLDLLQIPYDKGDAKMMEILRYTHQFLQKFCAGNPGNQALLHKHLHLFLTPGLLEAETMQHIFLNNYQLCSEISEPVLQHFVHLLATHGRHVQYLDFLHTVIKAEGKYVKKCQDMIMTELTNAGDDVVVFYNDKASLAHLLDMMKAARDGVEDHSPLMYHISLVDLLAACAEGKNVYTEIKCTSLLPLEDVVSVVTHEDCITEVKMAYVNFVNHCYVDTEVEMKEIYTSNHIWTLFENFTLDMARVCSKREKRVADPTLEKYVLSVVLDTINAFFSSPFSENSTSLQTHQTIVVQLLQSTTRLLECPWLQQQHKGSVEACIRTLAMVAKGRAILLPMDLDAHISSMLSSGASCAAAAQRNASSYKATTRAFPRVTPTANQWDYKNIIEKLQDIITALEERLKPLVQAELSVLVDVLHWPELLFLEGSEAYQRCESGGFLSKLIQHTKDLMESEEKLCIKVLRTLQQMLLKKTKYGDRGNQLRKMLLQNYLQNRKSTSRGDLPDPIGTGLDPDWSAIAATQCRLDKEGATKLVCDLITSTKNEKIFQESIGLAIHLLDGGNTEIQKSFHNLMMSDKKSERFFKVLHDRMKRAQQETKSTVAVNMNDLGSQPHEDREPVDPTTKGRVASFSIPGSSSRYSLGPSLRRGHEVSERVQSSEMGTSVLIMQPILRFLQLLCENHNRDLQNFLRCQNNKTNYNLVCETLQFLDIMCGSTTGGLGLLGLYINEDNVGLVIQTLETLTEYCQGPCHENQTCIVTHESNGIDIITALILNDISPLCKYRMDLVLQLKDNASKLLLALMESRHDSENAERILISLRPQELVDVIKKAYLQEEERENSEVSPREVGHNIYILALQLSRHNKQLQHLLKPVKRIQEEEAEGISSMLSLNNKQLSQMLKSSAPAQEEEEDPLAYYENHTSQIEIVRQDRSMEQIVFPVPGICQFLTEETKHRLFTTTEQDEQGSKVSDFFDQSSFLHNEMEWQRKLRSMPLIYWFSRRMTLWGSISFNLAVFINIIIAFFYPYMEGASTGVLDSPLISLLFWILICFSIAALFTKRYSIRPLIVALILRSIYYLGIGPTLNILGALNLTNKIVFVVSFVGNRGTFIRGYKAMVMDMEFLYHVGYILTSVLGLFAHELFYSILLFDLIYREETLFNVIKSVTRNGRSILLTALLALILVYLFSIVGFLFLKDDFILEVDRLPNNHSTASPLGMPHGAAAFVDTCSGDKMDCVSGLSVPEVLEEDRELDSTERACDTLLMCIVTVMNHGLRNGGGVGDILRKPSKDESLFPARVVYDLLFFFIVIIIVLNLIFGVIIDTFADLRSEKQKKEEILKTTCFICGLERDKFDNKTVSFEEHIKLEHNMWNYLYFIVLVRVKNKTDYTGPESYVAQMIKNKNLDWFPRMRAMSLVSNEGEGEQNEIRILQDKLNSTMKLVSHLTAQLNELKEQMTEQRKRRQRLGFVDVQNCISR

Molecular target: T1, Flag-tagged Tespa1 in Jurkat cells (J-Tespa1) (mouse) (UniProt Q3U132)
T1 sequence: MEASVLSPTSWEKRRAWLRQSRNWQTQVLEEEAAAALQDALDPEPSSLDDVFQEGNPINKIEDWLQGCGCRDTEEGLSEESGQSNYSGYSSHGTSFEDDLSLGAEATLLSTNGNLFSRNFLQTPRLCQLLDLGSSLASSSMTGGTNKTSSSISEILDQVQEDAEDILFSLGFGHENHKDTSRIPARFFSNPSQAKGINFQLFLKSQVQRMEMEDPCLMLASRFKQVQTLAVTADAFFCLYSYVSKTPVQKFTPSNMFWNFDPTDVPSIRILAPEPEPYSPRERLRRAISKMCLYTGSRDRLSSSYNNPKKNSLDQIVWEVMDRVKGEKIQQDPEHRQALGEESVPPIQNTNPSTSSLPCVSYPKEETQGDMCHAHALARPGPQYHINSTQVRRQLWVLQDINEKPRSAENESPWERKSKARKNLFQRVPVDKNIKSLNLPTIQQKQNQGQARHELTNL
Test: affinity purification with mass spectrometry; Flag-tagged Tespa1 pulled down with anti-Flag beads from whole-cell lysates of anti-CD3 plus anti-CD28-stimulated Jurkat cells; precipitates to mass spectrometry

| Substance | binding |
| --- | --- |
| IP3R2, endogenous in Jurkat cells (from UniProt Q14571 1-2701) (receptor) | binds |
| IP3R3, endogenous in Jurkat cells (from UniProt Q14573 1-2671) (receptor) | binds |

No constants are given. Whether binding was seen depends on the method and setting. In cells and extracts the contact can be indirect. These calls come from enrichment with a bait or labelling near it, and not all partners need be listed. Tags and fused reporters may be left off the sequences shown.
